Measured values as given in patent US20090304686A1, “INTERFERING IN ACTIVATION OF AN IMMUNE CELL BY INFLUENCING INTERACTION OF LAIR AND COLLAGEN” (UNIVERSOTAIR MEDISCH CENTRUM UTRECHT, priority 2006, published 2009).
No constants are given. Whether binding was seen depends on the method and setting. Some binding calls cover weakened binding; strength is not graded here. For part of these data: Tags and fused reporters may be left off the sequences shown. Blank lines part the entries; values can stand above or below the binder they belong to.

Chains of the proteins cited; added tags and fusions are not shown. Residues count along the entry.
UniProt P02461, residues 154-1221: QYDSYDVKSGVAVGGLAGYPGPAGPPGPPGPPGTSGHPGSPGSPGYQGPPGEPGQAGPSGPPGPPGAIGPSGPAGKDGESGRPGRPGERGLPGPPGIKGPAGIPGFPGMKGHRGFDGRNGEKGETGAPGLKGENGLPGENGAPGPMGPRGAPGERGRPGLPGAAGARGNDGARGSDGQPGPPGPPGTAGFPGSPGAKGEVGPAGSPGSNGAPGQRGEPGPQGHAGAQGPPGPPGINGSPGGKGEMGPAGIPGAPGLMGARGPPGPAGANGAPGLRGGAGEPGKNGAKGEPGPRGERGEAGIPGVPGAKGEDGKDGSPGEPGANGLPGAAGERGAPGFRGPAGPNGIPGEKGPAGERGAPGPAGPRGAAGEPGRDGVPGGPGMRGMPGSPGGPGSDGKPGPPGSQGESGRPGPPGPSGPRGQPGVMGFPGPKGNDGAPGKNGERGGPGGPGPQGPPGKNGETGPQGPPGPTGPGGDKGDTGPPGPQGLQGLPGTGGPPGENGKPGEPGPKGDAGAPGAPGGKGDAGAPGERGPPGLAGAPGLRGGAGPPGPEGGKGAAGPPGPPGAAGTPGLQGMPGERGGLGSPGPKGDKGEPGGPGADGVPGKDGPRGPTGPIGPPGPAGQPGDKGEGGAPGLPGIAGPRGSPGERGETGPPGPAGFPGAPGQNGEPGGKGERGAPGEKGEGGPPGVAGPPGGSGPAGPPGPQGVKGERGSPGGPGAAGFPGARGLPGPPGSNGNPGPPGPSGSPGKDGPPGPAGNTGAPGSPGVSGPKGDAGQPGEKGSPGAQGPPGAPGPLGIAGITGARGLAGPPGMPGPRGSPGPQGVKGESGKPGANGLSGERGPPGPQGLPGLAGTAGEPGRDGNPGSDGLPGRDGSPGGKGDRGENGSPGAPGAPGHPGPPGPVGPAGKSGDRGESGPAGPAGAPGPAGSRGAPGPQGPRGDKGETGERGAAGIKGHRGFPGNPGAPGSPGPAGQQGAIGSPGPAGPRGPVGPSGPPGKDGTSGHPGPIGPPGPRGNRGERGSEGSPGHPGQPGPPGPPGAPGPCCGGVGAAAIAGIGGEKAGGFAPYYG

Assays:
[1] = target: collagen III (purified, Sigma; acid-soluble human collagen type III in BIAcore) (human) (UniProt P02461); test: blocking of adhesion of hLAIR-1 K562 cells to plate-bound collagen III by supernatant with wild-type LAIR-2
[2] = target: collagen III (purified, Sigma; acid-soluble human collagen type III in BIAcore) (human) (UniProt P02461); test: blocking assay: coated collagen III pre-incubated with concentrated supernatant, blocked partner hLAIR-1 on K562 cells
[3] = target: HIS-tagged human collagen XIII (transiently expressed on 293T cells) (human) (UniProt Q5TAT6); test: flow cytometry on 293T cells transiently transfected with HIS-tagged collagens
[4] = target: HIS-tagged human collagen XIII (transiently expressed on 293T cells) (human) (UniProt Q5TAT6); test: flow cytometry on transient transfectants
[5] = target: HIS-tagged human collagen XIII (transiently expressed on 293T cells) (human) (UniProt Q5TAT6); test: flow cytometry on transiently transfected 293T cells (hLAIR-1-IgG shown in FIG. 3B)

binding [1]: binds
binding [2]: binds
B1: LAIR-2 (wild-type, secreted/soluble protein) (receptor, human, UniProt Q6ISS4-2 22-135, looked up)
chain: QEGALPRPSISAEPGTVISPGSHVTFMCRGPVGVQTFRLEREDRAKYKDSYNVFRLGPSESEARFHIDSVSEGNAGLYRCLYYKPPGWSEHSDFLELLVKGTVPGTEASGFDAP

binding [3]: binds
B2: mLAIR-1-IgG (mouse LAIR-1 fused to the Fc region of human IgG1) (Fc fusion, UniProt Q8BG84 22-144, looked up, not shown: a dimerising Fc or GST)
chain: QEGSLPDITIFPNSSLMISQGTFVTVVCSYSDKHDLYNMVRLEKDGSTFMEKSTEPYKTEDEFEIGPVNETITGHYSCIYSKGITWSERSKTLELKVIKENVIQTPAPGPTSDTSWLKTYSIY

binding [4]: binds
binding [5]: binds
B3: hLAIR-1-IgG (extracellular domain of human LAIR-1 fused to the Fc region of human IgG1) (Fc fusion, UniProt Q6GTX8 22-165, looked up, not shown: a dimerising Fc or GST)
chain: QEEDLPRPSISAEPGTVIPLGSHVTFVCRGPVGVQTFRLERDSRSTYNDTEDVSQASPSESEARFRIDSVREGNAGLYRCIYYKPPKWSEQSDYLELLVKESSGGPDSPDTEPGSSAGPTQRPSDNSHNEHAPASQGLKAEHLY

binding [3]: binds
B4: rLAIR-1-IgG (rat LAIR-1 fused to the Fc region of human IgG1) (Fc fusion, UniProt P0C1X9 22-143, looked up, not shown: a dimerising Fc or GST)
chain: QEESLSDFTICAEPGPVIPQGNFITIVCSTSGEYDTVRLEKEGSTFMEKKTEPHGKQHRFRIGPVNETITGYYNCIFEKNYVWSQRSNDLQLKVIKENVTQGLAPGPSMTSDTSWLKTYSIH
